Assay results from patent publication US11542304B2, “Multimeric bicyclic peptide ligands” (BicycleTx Limited, priority 2018, dated 2023).
Not every detail of the peptide structures is certain; ends, links or a residue may be inferred. Starred links: 1 amine or outer side, 2 acyl side, 3 side chain; linkers in the order of their positions; H or OH if unused. Positions of bridges follow the written chain, without caps; N, C: chain ends. Non-standard residues stand in square brackets, D forms with d. Chains are numbered I, II in the order given. X1 = O=C(CCOCCN(CCOCCC(=O)NCCOCCOCCOCCOCCOCCOCCOCCOCCOCCOCCn1cc(CCC(=O)[*:2])nn1)CCOCCC(=O)NCCOCCOCCOCCOCCOCCOCCOCCOCCOCCOCCn1cc(CCC(=O)[*:3])nn1)NCCOCCOCCOCCOCCOCCOCCOCCOCCOCCOCCn1cc(CCC(=O)[*:1])nn1; TATA = O=C(CC[*:1])N1CN(C(=O)CC[*:2])CN(C(=O)CC[*:3])C1; Nle = CCCC[C@H](N)C(=O)O

Chains of the proteins cited; added tags and fusions are not shown. Residues count along the entry.
UniProt Q07011, 24-255: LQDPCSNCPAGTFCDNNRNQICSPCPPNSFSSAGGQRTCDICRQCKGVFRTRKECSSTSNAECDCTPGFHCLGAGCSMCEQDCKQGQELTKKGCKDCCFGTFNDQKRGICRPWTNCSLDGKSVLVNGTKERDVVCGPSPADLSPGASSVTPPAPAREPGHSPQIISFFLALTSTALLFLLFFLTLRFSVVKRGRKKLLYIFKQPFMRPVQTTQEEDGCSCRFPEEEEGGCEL

Legend:
MC38 syngeneic tumors = test: In vivo efficacy in MC38 syngeneic tumors in C57BL/6J B-h4-1BB humanized mice; details: 20 or 30 mg/kg i.v. QAD × 6; compared to CD137 monoclonal antibody agonist; FIG. 7
Method: The MC38 murine colon carcinoma cell line was purchased from Shunran Shanghai Biological Technology Co., Ltd. The cells will be maintained in vitro as monolayer culture in Dulbecco's Modified Eagle's medium (DMEM) supplemented with 10% heat inactivated fetal calf serum, 100 U/mL penicillin and 100 μg/mL streptomycin at 37° C. in an atmosphere of 5% CO2. The tumor cells will be routinely subcultured twice weekly by trypsin-EDTA treatment. Cells growing in an exponential growth phase will be harvested and counted for tumor inoculation. […]
Tumor volume was measured three times a week in two dimensions using a caliper, and the volume was expressed in mm3 using the formula: V=0.5a×b2 where a and b were the long and short diameters of the tumor, respectively. […]
In study 2, mice were sacrificed 21 days after treatment initiation and tumors were harvested for T-cell analysis by flow cytometry. […] Stained cells were analysed by Attune N×T Flow Cytometer. T-cell results are expressed as % of CD3+ cells among CD45+ cells. CD8+ T-cell results are expressed as % of CD8+ cells among CD45+CD3+ cells. CD4+ T-cell results are expressed as % of CD4+ cells among CD45+CD3+ cells. […]
Statistical analysis: Data was analyzed using 2way ANOVA or ordinary One-way ANOVA with Dunnett's test for multiple comparisons, and P<0.05 was considered to be statistically significant. […]

CD137 = CD137 (Homo sapiens, UniProt Q07011); test: CD137 Promega reporter cell activity assay (NF-κB luciferase in Jurkat cells); details: Average EC50 for CD137L = 14.2 nM

What does the source list for “I: Ac-ACIEKGQYCFADPY[Nle]CA-NH2 / II: Ac-ACIEKGQYCFADPY[Nle]CA-NH2 / III: Ac-ACIEKGQYCFADPY[Nle]CA-NH2 (linker I:2-I:9-I:16, II:2-II:9-II:16, III:2-III:9-III:16 via TATA; linker I:5-II:5-III:5 via X1) [BCY7835]”?
anti-tumor activity (tumor volume), Study 1 (MC38 syngeneic tumors): elicits a range of anti-tumor activities; Average Fold EC50 Improvement relative to CD137L (CD137): 0.50
